Test results: patent US20160084825A1
These are yes or no findings as the source states them, for the method shown. Some results given as binding are weak or reduced against the parent protein; the word gives no strength.

Amino acid sequences for entries named in this document (tags omitted). A change or cut given only in a name is not applied to a line headed by its entry.
UniProt P08514: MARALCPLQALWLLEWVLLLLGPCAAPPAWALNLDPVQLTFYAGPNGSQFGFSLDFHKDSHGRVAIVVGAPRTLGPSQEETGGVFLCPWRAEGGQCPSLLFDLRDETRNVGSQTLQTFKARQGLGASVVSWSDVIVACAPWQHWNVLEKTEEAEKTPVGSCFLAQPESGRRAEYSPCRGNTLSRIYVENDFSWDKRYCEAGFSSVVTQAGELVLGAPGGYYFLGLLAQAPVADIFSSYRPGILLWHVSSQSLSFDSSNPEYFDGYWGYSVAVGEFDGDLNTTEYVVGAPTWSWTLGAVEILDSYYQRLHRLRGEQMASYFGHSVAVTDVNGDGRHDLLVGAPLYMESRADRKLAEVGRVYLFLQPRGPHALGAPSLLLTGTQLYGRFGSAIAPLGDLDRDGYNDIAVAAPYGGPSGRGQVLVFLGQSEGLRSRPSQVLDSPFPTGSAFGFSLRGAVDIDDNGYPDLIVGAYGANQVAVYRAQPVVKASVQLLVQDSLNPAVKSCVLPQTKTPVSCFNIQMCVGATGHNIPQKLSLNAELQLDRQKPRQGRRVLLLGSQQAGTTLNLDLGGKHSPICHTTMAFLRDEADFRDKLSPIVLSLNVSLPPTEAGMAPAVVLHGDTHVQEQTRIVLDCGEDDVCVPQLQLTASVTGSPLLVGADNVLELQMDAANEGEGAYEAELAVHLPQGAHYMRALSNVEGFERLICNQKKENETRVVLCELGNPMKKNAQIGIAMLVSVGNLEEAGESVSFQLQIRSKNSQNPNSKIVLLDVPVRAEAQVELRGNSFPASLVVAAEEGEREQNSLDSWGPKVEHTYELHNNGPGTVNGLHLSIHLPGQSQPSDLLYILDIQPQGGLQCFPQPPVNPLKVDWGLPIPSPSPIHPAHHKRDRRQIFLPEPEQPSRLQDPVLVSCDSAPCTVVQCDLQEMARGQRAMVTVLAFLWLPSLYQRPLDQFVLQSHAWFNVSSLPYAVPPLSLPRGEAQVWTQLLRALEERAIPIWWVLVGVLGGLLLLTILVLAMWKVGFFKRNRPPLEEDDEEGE
UniProt P05106: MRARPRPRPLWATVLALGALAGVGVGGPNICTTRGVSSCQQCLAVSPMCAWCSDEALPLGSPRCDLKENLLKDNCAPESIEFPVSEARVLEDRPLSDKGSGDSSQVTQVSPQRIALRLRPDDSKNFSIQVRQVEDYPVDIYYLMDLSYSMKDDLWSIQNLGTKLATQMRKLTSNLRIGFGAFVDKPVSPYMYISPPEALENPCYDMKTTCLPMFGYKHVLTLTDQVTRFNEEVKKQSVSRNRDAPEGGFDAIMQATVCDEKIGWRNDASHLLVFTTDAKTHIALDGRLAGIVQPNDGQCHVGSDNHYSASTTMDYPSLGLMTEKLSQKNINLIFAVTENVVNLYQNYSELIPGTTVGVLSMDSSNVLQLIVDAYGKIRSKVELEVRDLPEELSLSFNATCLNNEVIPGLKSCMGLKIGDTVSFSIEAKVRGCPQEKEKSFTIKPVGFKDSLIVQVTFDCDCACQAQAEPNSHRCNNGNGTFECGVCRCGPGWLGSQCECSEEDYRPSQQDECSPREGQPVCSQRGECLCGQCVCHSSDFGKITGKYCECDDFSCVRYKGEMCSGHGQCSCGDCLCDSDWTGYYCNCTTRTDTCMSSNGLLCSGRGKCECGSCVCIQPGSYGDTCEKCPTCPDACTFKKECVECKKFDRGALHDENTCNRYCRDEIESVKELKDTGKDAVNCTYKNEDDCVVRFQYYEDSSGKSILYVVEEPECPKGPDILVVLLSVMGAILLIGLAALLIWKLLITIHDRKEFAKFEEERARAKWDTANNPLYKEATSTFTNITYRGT
UniProt P02671: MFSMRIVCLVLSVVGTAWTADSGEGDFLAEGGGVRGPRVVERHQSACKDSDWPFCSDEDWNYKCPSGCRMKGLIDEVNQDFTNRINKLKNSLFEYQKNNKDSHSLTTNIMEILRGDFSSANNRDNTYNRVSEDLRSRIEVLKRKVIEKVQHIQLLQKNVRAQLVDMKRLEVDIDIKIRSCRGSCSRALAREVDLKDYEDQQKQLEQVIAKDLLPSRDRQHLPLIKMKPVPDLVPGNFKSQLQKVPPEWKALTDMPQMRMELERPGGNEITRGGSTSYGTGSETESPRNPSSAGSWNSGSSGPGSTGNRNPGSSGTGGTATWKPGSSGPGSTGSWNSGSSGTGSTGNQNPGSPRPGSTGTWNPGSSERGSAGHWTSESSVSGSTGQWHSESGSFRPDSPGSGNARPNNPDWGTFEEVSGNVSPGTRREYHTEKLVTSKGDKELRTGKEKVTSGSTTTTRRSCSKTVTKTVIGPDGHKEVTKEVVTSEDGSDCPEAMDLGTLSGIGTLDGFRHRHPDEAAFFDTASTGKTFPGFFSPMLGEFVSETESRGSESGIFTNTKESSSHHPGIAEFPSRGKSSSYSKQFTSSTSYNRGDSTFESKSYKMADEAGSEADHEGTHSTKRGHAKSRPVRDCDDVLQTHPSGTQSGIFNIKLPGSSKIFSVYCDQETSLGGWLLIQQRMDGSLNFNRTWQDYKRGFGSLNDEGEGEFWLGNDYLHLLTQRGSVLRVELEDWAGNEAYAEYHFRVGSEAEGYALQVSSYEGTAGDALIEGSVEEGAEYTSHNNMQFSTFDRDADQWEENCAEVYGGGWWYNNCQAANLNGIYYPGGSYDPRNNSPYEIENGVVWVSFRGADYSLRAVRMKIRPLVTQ

Target: wild-type integrin αIIbβ3, full-length, expressed on 293T cells (human) (UniProt P08514+P05106)
Assay: FITC-fibrinogen binding to 293T transfectants, flow cytometry

binding: binds
Substance: FITC-conjugated soluble fibrinogen (from UniProt P02671 20-629; P02675 31-491; P02679 27-437) (ligand)
